Measured values taken from ChEMBL document CHEMBL1158972, “New cytotoxic beta-carboline alkaloids from the marine bryozoan, Cribricellina cribraria” (J Nat Prod, 1991).

Experiments:
Pseudomonas aeruginosa = assay: Antimicrobial activity against Pseudomonas aeruginosa at 10 ug; format: functional, organism-based
Escherichia coli = assay: Antimicrobial activity against Escherichia coli at 10 ug; format: functional, organism-based

What does the source list for GENTAMICIN?
inhibition zone (IZ) (Pseudomonas aeruginosa): 8 mm; inhibition zone (IZ) (Escherichia coli): 9 mm
